Some results were stated once for a whole list of compounds, not compound by compound. At least one structure is not confirmed: it was looked up by name or label, or the drawing left a doubt.
Assays:
Format in all cases: in vivo
[1] = test system: common house mosquitoes (Culex pipens pollens); experiment: Test Example 13 / Test method 13: spray-gun test on adult mosquitoes in test chamber; conditions: 0.1% w/v in isopropyl alcohol/kerosine=1/9, 0.5 mL sprayed, after 15 minutes
[2] = test system: housefly (Musca domestica); experiment: Test Example 9 / Test method 9: treated filter paper with sucrose bait, housefly; conditions: 500 ppm, 0.7 mL on filter paper, female adult, after 24 hours
[3] = test system: German cockroach (Blattella germanica); experiment: Test Example 10 / Test method 10: treated filter paper with sucrose bait, German cockroach; conditions: 500 ppm, 0.7 mL on filter paper, male adult, after 6 days
[4] = test system: common house mosquito (Culex pipiens pallens); experiment: Test Example 8 / Test method 8: mosquito larvae released into diluted solution; conditions: 3.5 ppm, last instar larvae in diluted solution, after 1 day
[5] = test system: common house mosquito (Culex pipiens pallens); experiment: Test Example 12 / Test method 12: coated container, adult female mosquito; conditions: 10 mg/m^2 coated container, after 1 hour (Test method 12)

SMILES	mortality [2] [%]	mortality [3] [%]	further results
CCCC#Cc1cc(OC)ccc1/C(=C\OC)C(=O)OC [compound 1]	≥ 80	–	mortality [1]: ≥ 80%
CCCC#Cc1cc(F)ccc1/C(=C\OC)C(=O)OC [compound 2]	≥ 80	≥ 100	mortality [1]: ≥ 80%
CO/C=C(/C(=O)OC)c1ccc(OC)cc1C#CCC(C)C [compound 3]	≥ 80	≥ 100	mortality [1]: ≥ 80%
CO/C=C(/C(=O)OC)c1ccc(Cl)cc1C#CCC(C)C [compound 4]	≥ 80	≥ 100	mortality [1]: ≥ 80%
CO/C=C(/C(=O)OC)c1ccc(C)cc1C#CCC(C)C [compound 5]	≥ 80	≥ 100	–
CO/C=C(/C(=O)OC)c1ccc(F)cc1C#CCC(C)C [compound 6]	≥ 80	≥ 100	–
CCCCC#Cc1cc(Cl)ccc1/C(=C\OC)C(=O)OC [compound 7]	≥ 80	≥ 100	–
CCCCC#Cc1cc(C)ccc1/C(=C\OC)C(=O)OC [compound 9]	≥ 80	–	–
CO/C=C(/C(=O)OC)c1ccc(C(F)(F)F)cc1C#CCC(C)C [compound 10]	≥ 80	≥ 100	–
CCCC#Cc1cc(C)ccc1C(=COC)C(=O)OC [compound 11]	≥ 80	≥ 100	mortality [1]: ≥ 80%
CCc1ccc(/C(=C\OC)C(=O)OC)c(C#CCC(C)C)c1 [compound 12]	≥ 80	–	–
CCCc1ccc(/C(=C\OC)C(=O)OC)c(C#CCC(C)C)c1 [compound 13]	≥ 80	–	–
COC=C(C(=O)OC)c1ccc(C#C[Si](C)(C)C(C)(C)C)cc1C#CCC(C)C [compound 14]	–	–	mortality [1]: ≥ 80%
CCCCC#Cc1cc(C#C[Si](C(C)C)(C(C)C)C(C)C)ccc1/C(=C\OC)C(=O)OC [compound 15]	–	–	mortality [4]: ≥ 91%
C#Cc1ccc(C(=COC)C(=O)OC)c(C#CCC(C)C)c1 [compound 17]	≥ 80	≥ 100	mortality [1]: ≥ 80%
C#Cc1ccc(/C(=C\OC)C(=O)OC)c(C#CCCCC)c1 [compound 18]	≥ 80	–	–
C#Cc1ccc(/C(=C\OC)C(=O)OC)c(C#CC2CC2)c1 [compound 19]	≥ 80	–	–
CO/C=C(/C(=O)OC)c1ccc(Br)cc1C#CCC(C)C [compound 20]	≥ 80	≥ 100	–
CCCC#Cc1cc(Cl)ccc1/C(=C\OC)C(=O)OC [compound 21]	≥ 80	≥ 100	–
CO/C=C(/C(=O)OC)c1ccc(Cl)cc1C#CC(C)C [compound 22]	≥ 80	–	–
CCC(C)C#Cc1cc(Cl)ccc1/C(=C\OC)C(=O)OC (stereo not drawn) [compound 23]	–	≥ 100	–
CCCCCC#Cc1cc(Cl)ccc1/C(=C\OC)C(=O)OC [compound 24]	≥ 80	≥ 100	–
CO/C=C(/C(=O)OC)c1ccc(OC)cc1C#CCCC(C)C [compound 25]	≥ 80	–	–
CO/C=C(/C(=O)OC)c1ccc(Cl)cc1C#CCC1CCCC1 [compound 27]	≥ 80	–	–
CCOCC#Cc1cc(Cl)ccc1/C(=C\OC)C(=O)OC [compound 29]	≥ 80	≥ 100	–
CO/C=C(/C(=O)OC)c1ccc(Cl)cc1C#CCCCCl [compound 30]	≥ 80	–	–
CCCCC#Cc1cc(C(C)(C)C)ccc1C(=COC)C(=O)OC [compound 32]	–	–	mortality [5]: ≥ 80%
CCCC#Cc1cc(C)c(C)cc1C(=COC)C(=O)OC [compound 33]	≥ 80	≥ 100	–
COC=C(C(=O)OC)c1ccc(C2CC2)cc1C#CCC(C)C [compound 34]	≥ 80	≥ 100	–
CCCCC=CC#Cc1cc(C)ccc1C(=COC)C(=O)OC [compound 35]	≥ 80	–	–
